Assay results taken from article PMC10454621.
No constants are given. Whether binding was seen depends on the method and setting. Some binding calls cover weakened binding; strength is not graded here.

Protein sequences, listed by entry. Tags and fused reporters are not part of them. Residues count along the entry.
UniProt P05067, residues 672-713: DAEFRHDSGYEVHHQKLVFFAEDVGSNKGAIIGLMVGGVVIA
UniProt P61769: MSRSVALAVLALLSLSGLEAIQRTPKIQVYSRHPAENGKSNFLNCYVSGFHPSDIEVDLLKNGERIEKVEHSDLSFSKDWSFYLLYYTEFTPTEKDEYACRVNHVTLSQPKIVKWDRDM

Assays:
Assay in all cases: far-UV CD spectroscopy; aggregated or fibrillar form of the mammalian protein (0.5 mg/mL; for lysozyme during fibrillogenesis and after its completion) mixed with vicilin amyloid fibrils (0.1 mg/mL), incubated for 2 h; interaction read from a change in the CD spectrum; both purified
[1] = target: 42-residue β-amyloid peptide (UniProt P05067)
lysozyme = lysozyme (UniProt P00698)
β-2-microglobulin = β-2-microglobulin (UniProt P61769)

Measured: binding

B1: 7S seed storage globulin vicilin of the garden pea Pisum sativum L. (protein, UniProt P13918 29-459)
chain: RSDPQNPFIFKSNKFQTLFENENGHIRLLQKFDQRSKIFENLQNYRLLEYKSKPHTIFLPQHTDADYILVVLSGKAILTVLKPDDRNSFNLERGDTIKLPAGTIAYLVNRDDNEELRVLDLAIPVNRPGQLQSFLLSGNQNQQNYLSGFSKNILEASFNTDYEEIEKVLLEEHEKETQHRRSLKDKRQQSQEENVIVKLSRGQIEELSKNAKSTSKKSVSSESEPFNLRSRGPIYSNEFGKFFEITPEKNPQLQDLDIFVNSVEIKEGSLLLPHYNSRAIVIVTVNEGKGDFELVGQRNENQQEQRKEDDEEEEQGEEEINKQVQNYKAKLSSGDVFVIPAGHPVAVKASSNLDLLGFGINAENNQRNFLAGDEDNVISQIQRPVKELAFPGSAQEVDRILENQKQSHFADAQPQQRERGSRETRDRLSSV
binds: all assays above
